Hit rate of the full screen: of about 300,000 compounds, about 5,400 (1.8%) were called active. Inconclusive means that the source gave no clear call. Such entries were picked first, then a sample of the others. Calls follow the shape of the full dose curve; tested in HEK293 cells. Potencies of inconclusive entries are doubtful fits and often do not repeat.
assay: qHTS for inhibitors of binding or entry into cells for Marburg Virus; conditions: Marburg virus pseudotyped entry inhibition, cell reporter; activity change, negative = inhibition: at 37.8 µM (top of the series) unless noted
% is scaled to controls: 0 for no effect and ±100 for the full control effect; potency is read from the fitted curve at half-maximal effect.

Row | SMILES | Potency | activity change, negative = inhibition
1 | CN1CCC(N(C)C(=S)Nc2ccc(SC(F)F)cc2)CC1 | inconclusive: 32.6 µM [inhibitor, single point] | 
2 | COc1ccc(NS(=O)(=O)c2cc(NC(=O)c3cnc(C)cn3)ccc2N2CCCC2)cc1 | inconclusive: 11.2 µM [inhibitor, single point] | 
3 | COc1ccc(OCC(=O)Nc2ccc(NC(=O)c3ccco3)cc2)cc1 | inconclusive: 6.31 µM [activator, single point] | 
4 | O=[N+]([O-])c1cccc(C=NNc2ccccc2)c1 | inconclusive: 2.82 µM [inhibitor, partial curve, poor fit] | 
5 | CC12CCC(=O)N1C(C(=O)NCCN1C(=O)S/C(=C\c3ccc(OC(F)F)cc3)C1=O)CS2 (stereo not given) |  | inactive: 19.8%
6 | Cc1c(C(=O)c2ccccc2C(=O)O)sc2ccccc12 |  | inactive: 3.49% [at 46.1 µM]
7 | Cc1cc(C)c(-c2nc3ccccc3s2)[nH]1 | inconclusive: 3.55 µM [activator, partial curve, poor fit] | 
8 | O=C(NO)c1ccccc1C(F)(F)F | inconclusive: 8.2 µM [inhibitor, partial curve, poor fit] | 
9 | CC1=Nn2c(nnc2C2CCCCC2)SC1 | inconclusive: 14.6 µM [activator, single point] | 
10 | Cc1nc2c3ccccc3nc(SCC(=O)N3CC(C)CC(C)C3)n2n1 (stereo not given) | inconclusive: 0.316 µM [activator, partial curve, poor fit] | 
11 | CC1(C)Cc2nc3oc4c(NCc5ccccc5)ncnc4c3cc2CO1 | inconclusive: 3.26 µM [inhibitor, full curve, poor fit] | 
12 | O=C(COc1ccc(Cl)cc1)Nc1ccc(N2CCN(C(=O)c3ccco3)CC2)cc1 | inconclusive: 20.6 µM [inhibitor, partial curve, poor fit] | 
13 | OC(c1ccccc1)(c1ccc(F)cc1)C(c1ccccc1)N1CCOCC1 (stereo not given) | inconclusive: 12.6 µM [inhibitor, partial curve] | 
14 | CCc1ccc2oc(C(=O)NCc3ccccc3)cc(=O)c2c1 | inconclusive: 6.31 µM [inhibitor, single point] | 
15 | Cc1[nH]c(=O)n(C(C)C)c(=O)c1Br |  | inactive: 12.4% [at 46.1 µM]
16 | O=C(c1cccs1)n1nc(-c2ccccc2)nc1NCc1ccco1 |  | inactive: -9.55%
17 | COC(=O)c1cc(OC)c(OC)cc1NC(=O)c1ccc(OC)cc1 |  | inactive: -1.48%
18 | O=C(Nc1ccc2nc(-c3ccccc3)[nH]c2c1)c1cccs1 |  | inactive: -3.59%
19 | CCc1cccc(CC)c1NC(=O)c1ccccc1CCc1ccccc1 | inconclusive: 1.26 µM [activator, single point] | 
20 | Cc1ccc(CN2CCN(Cc3cccn3-c3nccs3)CC2CCO)cc1 (stereo not given) | inconclusive: 17.8 µM [inhibitor, partial curve, poor fit] | 
21 | COc1ccc(/C(O)=C2/C(=O)C(=O)N(CCN3CCOCC3)C2c2cccnc2)cc1OC (stereo not given) |  | inactive: 1.55%
22 | CC1CCc2cc(F)ccc2N1C(=O)c1cccnc1 (stereo not given) |  | inactive: 0.797% [at 46.1 µM]
23 | COc1ccccc1OC[C@H](O)COC(N)=O | inconclusive: 3.66 µM [activator, single point] | 
24 | COc1cc(N=Nc2c(C)n(C)n(-c3ccccc3)c2=O)ccc1N |  | inconclusive: 0.196% [activator] [at 46.1 µM]

Rewritten in CSV form: part of the list above
Row,SMILES,Potency,"activity change, negative = inhibition"
11,CC1(C)Cc2nc3oc4c(NCc5ccccc5)ncnc4c3cc2CO1,"inconclusive: 3.26 µM [inhibitor, full curve, poor fit]",
16,O=C(c1cccs1)n1nc(-c2ccccc2)nc1NCc1ccco1,,inactive: -9.55%
18,O=C(Nc1ccc2nc(-c3ccccc3)[nH]c2c1)c1cccs1,,inactive: -3.59%

(cont.)

Row | SMILES | Potency | activity change, negative = inhibition
25 | CC(=O)c1cc(C#N)c(SCC(=O)O)nc1C | inconclusive: 3.55 µM [activator, single point] | 
26 | CCOC(=O)c1cnc(SCC(=O)Nc2ccc(NC(C)=O)c(OC)c2)nc1N | inconclusive: 0.146 µM [activator, single point] | 
27 | S=C(NCCc1ccccc1)NCC1CCCO1 (stereo not given) | inconclusive: 1.78 µM [activator, full curve, poor fit] | 
28 | Cc1ccc2nc(NCC(=O)O)nc(-c3ccccc3)c2c1 |  | inactive: -32%
29 | O=C(COC(=O)CNC(=O)c1ccccc1)Nc1ccc(S(=O)(=O)N2CCOCC2)cc1 | inconclusive: 3.98 µM [inhibitor, single point] | 
30 | Cc1cc(C(=O)COC(=O)c2ccc[nH]c2=O)c(C)n1-c1ccccc1 | inconclusive: 16.4 µM [inhibitor, single point] | 
31 | COc1ccc(NC(=O)c2ccc(CN(c3cc(Cl)ccc3C)S(=O)(=O)c3ccccc3)cc2)cc1OC | active: 4.11 µM | 
32 | CC(C)c1ccc(NC(=O)c2sccc2-n2cccc2)cc1 |  | inactive: -17.8%
33 | O=C(Nc1ccc(Br)cc1)C1C2C=CC3(O2)C1C(=O)N(CCN1CCCCC1)C3C(=O)NC1CCCCC1 (stereo not given) | inconclusive: 11.2 µM [inhibitor, partial curve, poor fit] | 
34 | CC(=O)N1c2ccc(S(=O)(=O)N3CCC(C(=O)Nc4cccc(C)c4C)CC3)cc2CC1C (stereo not given) |  | inactive: 12% [at 46.1 µM]
35 | COc1ccc2c(c1)-c1nc(NC(=O)c3cc(OC)c(OC)c(OC)c3)sc1CC2 | inconclusive: 8.91 µM [inhibitor, partial curve, poor fit] | 
36 | COc1ccc(C(=O)NC(=S)Nc2ccccc2N2CCOCC2)cc1[N+](=O)[O-] | inconclusive: 31.6 µM [inhibitor, single point] | 
37 | Cc1ccccc1OCCNC(=O)/C=C/c1ccccc1 |  | inactive: 21.5%
38 | CC(=O)c1cccc(NC(=O)CN2C(=O)NC3(CCCCCCC3)C2=O)c1 |  | inactive: 7.05%
39 | CCOc1ccc(-c2nc3ccccc3c(=O)o2)cc1 | inconclusive: 6.31 µM [inhibitor, single point] | 
40 | CC1=CC(c2ccc(Cl)cc2)n2nc(NC(=O)CCC(=O)O)nc2N1 (stereo not given) |  | inactive: 2.31% [at 46.1 µM]
41 | CC(=O)Oc1c(-c2ccco2)oc2ccccc2c1=O | inconclusive: 1.26 µM [inhibitor, partial curve, poor fit] | 
42 | COc1ccc(-c2coc3cc(O)cc(O)c3c2=O)cc1OC |  | inactive: 9.59% [at 46.1 µM]
43 | COc1cccc2cc(C(=O)OCC(=O)N3CC(C)OC(C)C3)c(=O)oc12 (stereo not given) | inconclusive: 8.91 µM [activator, partial curve, poor fit] | 
44 | COc1ccc(/C=C/C(=O)NCC(=O)N/N=C(\C)Cc2ccccc2)cc1 | inconclusive: 1 µM [inhibitor, partial curve, poor fit] | 
45 | Cc1ccc(C(=O)NNC(=O)C(C)Oc2ccc3ccccc3c2)o1 (stereo not given) | inconclusive: 0.562 µM [activator, single point] | 
46 | Cc1ccc(Sc2cc(N3CCOCC3)nc(-c3ccccc3)n2)cc1 | inconclusive: 20 µM [inhibitor, single point] | 
47 | CCOC(=O)c1cccc(NC(=O)[C@H](CSCc2ccccc2)N2Cc3ccccc3C2=O)c1 |  | inactive: -29.5% [at 46.1 µM]
48 | Cc1ccccc1CC1(CO)CCCN(C(=O)c2ccccc2Cl)C1 (stereo not given) | inconclusive: 10 µM [inhibitor, single point] | 

Row | SMILES | Potency | activity change, negative = inhibition
49 | Oc1ccc(Br)cc1/C=N/n1c(C2CCCCC2)n[nH]c1=S |  | inactive: -4.58% [at 46.1 µM]
50 | CCOC(=O)c1c(C)[nH]c(C(=O)OCC(=O)Nc2ccc(OCC)cc2)c1C | inconclusive: 6.51 µM [inhibitor, partial curve, poor fit] | 
51 | O=C(NCC1CCCO1)C(=Cc1cccc([N+](=O)[O-])c1)C(=O)NCC1CCCO1 (stereo not given) | active: 11.6 µM | 
52 | COc1ccccc1CNC(=O)c1ccc2c(c1)OCO2 |  | inactive: 9.7% [at 46.1 µM]
53 | COc1ccc(N(CC(=O)Nc2ccc(C)c(C)c2)S(=O)(=O)c2c(C)n[nH]c2C)cc1 |  | inactive: 3.55%
54 | CS(=O)(=O)Nc1ccc(C(=O)Nc2ccc3ccccc3c2)cc1 |  | inactive: 17.9%
55 | Cc1ccc(-n2c(=O)c3ccc(C(=O)NCc4ccccc4Cl)cc3n(CC(=O)Nc3ccc(C)cc3C)c2=O)cc1 |  | inconclusive: 7.53% [activator] [at 46.1 µM]
56 | O=C(N/N=C/c1cc([N+](=O)[O-])c(N2CCOCC2)cc1N1CCOCC1)c1cccnc1 | inconclusive: 3.16 µM [inhibitor, single point] | 
57 | CCOC(=O)c1sc(NC(=O)CNCc2cccnc2)c(C(=O)OCC)c1C | inconclusive: 2 µM [activator, single point] | 
58 | NS(=O)(=O)c1ccc(CNC(=O)c2ccc3ccccc3n2)cc1 |  | inactive: 4.12% [at 46.1 µM]
59 | Cc1cn2c(=O)cc(COc3ccc(NC(=O)COc4ccccc4)cc3)nc2s1 |  | inactive: 22.9% [at 46.1 µM]
60 | CC(C)C1OC(c2cccc(NC(=O)c3cccs3)c2)OCC1(C)C (stereo not given) | inconclusive: 17.8 µM [inhibitor, partial curve, poor fit] | 
61 | CSc1ccccc1NC(=O)Nc1ccccc1 | inconclusive: 32.6 µM [activator, partial curve, poor fit] | 
62 | COc1cccc(C(C(=O)NC(C)(C)C)N(CCc2ccccc2)C(=O)CCC(=O)Nc2cc(C)on2)c1OC (stereo not given) | inconclusive: 11.2 µM [inhibitor, partial curve, poor fit] | 
63 | Cc1ccc(S(=O)(=O)/N=C2\C=C(Nc3cccc(C(=O)O)c3)C(=O)c3ccccc32)cc1 | inconclusive: 15.8 µM [inhibitor, single point] | 
64 | Cc1ccc(-c2nn(-c3ccccc3)cc2CN(Cc2ccccc2)C(=O)c2ccco2)o1 | inconclusive: 29.1 µM [inhibitor, single point] | 
65 | C#CC(C)(CC)NC(=O)Cn1nnc(-c2ccc(OCc3c(F)cccc3Cl)cc2)n1 (stereo not given) |  | inactive: -6.24% [at 46.1 µM]
66 | O=C(NCC(c1ccco1)N1CCc2ccccc21)C(=O)Nc1ccccc1 (stereo not given) | inconclusive: 2.51 µM [inhibitor, partial curve, poor fit] | 
67 | Cc1cccnc1NC(=O)CCNC(=O)c1ccc(Cl)cc1 | inconclusive: 5.62 µM [activator, single point] | 
68 | COc1ccccc1CC(=O)Nc1ccc(-c2noc(COc3ccc(Cl)c(C)c3)n2)cc1 |  | inactive: -25.3%
69 | S=C(NCCc1ccccc1)NCCN1CCOCC1 | inconclusive: 3.55 µM [activator, partial curve, poor fit] | 
70 | CCn1c2ccccc2c2cc(CN3CCN(S(C)(=O)=O)CC3)ccc21 | inconclusive: 35.5 µM [inhibitor, partial curve, poor fit] | 

From PubChem BioAssay AID540276 (National Center for Advancing Translational Sciences (NCATS), 2011)
